Test results as given in patent US20220047567A1, “METHODS FOR THE TREATMENT OF NEUROFIBROMATOSIS” (INSERM (INSTITUT NATIONAL DE LA SANTÉ ET DE LA RECHERCHE …, priority 2018, published 2022).
At least one compound was matched to its structure with a doubt left.

System: NF1−/− cells
Test: Apoptosis assessed by PARP cleavage in NF1−/− cells
Type: cell-based
Conditions: different doses, FIG. 1C
From the text: FIG. 1: NF1+/+ and NF1−/− cells were exposed to either DMSO, BYL719 at different concentrations […], selumetinib at different concentrations (1 and 10 mmol·L−1) or a combination of BYL719 1 mmol·L−1 and selumetinib 10 mmol·L−1 or BYL719 1 mmol·L−1 and selumetinib 10 mmol·L−1 and IPA3. […] The addition of BYL719 to either selumetinib or selumetinib and IPA3 increases cells apoptosis. All data are shown as the means±s.e.m. ANOVA followed by Tukey-Kramer test. White column: NF1+/+, black column: NF1−/−.
Inventors first checked in immortalized NF1−/− cells if the PIK3CA pathway was recruited (FIGS. 1A, 1B and 1C). […] They then treated the cells with BYL719. […] They then exposed the NF1−/− cells to different dose of selumetinib, a MAP kinase inhibitor, drug that gave encouraging results in some patients with neurofibromatosis.

SMILES: Cn1cnc2c(F)c(Nc3ccc(Br)cc3Cl)c(C(=O)NOCCO)cc21 [selumetinib]
- apoptosis as assessed by PARP cleavage: induced apoptosis in a dose dependent manner but to a lower extent compared to BYL719
